# Source: the supplement of paper PMC8728848
# The list shows a part of the results.
# B1: CTLX (Homo sapiens), Q6UXS0 (protein)
# chain: SLCPLFWMEFKGHCYRFFPLNKTWAEADLYCSEFSVGRKSAKLASIHSWEENVFVYDLVNSCVPGIPADVWTGLHDHRQEGQFEWTDGSSYDYSYWDGSQPDDGVHADPEEEDCVQIWYRPTSALRSWNDNTCSRKFPFVCKIPSLTIH
# Experiments:
# Experiment in all cases: glycan array binding signal (z-score within array); higher = stronger binding
# Settings in all cases: glycan notation: IUPAC condensed, linker removed
# Man(b1-4)GlcNAc = target: Man(b1-4)GlcNAc
# Outline: (§1)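 The binding signal is a Z-score computed within each array and averaged over linkers. Arrays of the same protein sequence at different concentrations or buffers were also averaged together. Data originate from 3228 arrays in the Consortium for Functional Glycomics database, kept only where the protein sequence was available.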
# Neu5Ac(a2-3)Gal = target: Neu5Ac(a2-3)Gal
# Outline: as §1
# [1] = target: Neu5Ac(a2-3)Gal(b1-3)GalNAc
# Outline: as §1
# [2] = target: Neu5Ac(a2-3)Gal(b1-3)GalNAc(b1-3)Gal(a1-4)Gal(b1-4)Glc
# Outline: as §1
# [3] = target: Neu5Ac(a2-3)Gal(b1-3)GalNAc(b1-3)Gal(b1-4)GlcNAc
# Outline: as §1
# [4] = target: Neu5Ac(a2-3)Gal(b1-3)GalNAc(b1-4)[Neu5Ac(a2-3)]Gal(b1-4)Glc
# Outline: as §1
# [5] = target: Neu5Ac(a2-3)Gal(b1-3)GalNAc6S
# Outline: as §1
# [6] = target: Neu5Ac(a2-3)Gal(b1-3)GlcNAc
# Outline: as §1
# [7] = target: Neu5Ac(a2-3)Gal(b1-3)GlcNAc(b1-3)Gal(b1-3)GlcNAc
# Outline: as §1
# [8] = target: Neu5Ac(a2-3)Gal(b1-3)GlcNAc6S
# Outline: as §1
# [9] = target: Neu5Ac(a2-3)Gal(b1-3)[Fuc(a1-4)]GlcNAc
# Outline: as §1
# [10] = target: Neu5Ac(a2-3)Gal(b1-3)[Fuc(a1-4)]GlcNAc(b1-3)Gal(b1-3)[Fuc(a1-4)]GlcNAc
# Outline: as §1
# [11] = target: Neu5Ac(a2-3)Gal(b1-3)[Fuc(a1-4)]GlcNAc(b1-3)Gal(b1-4)[Fuc(a1-3)]GlcNAc
# Outline: as §1
# [12] = target: Neu5Ac(a2-3)Gal(b1-3)[Neu5Ac(a2-3)Gal(b1-4)]GlcNAc
# Outline: as §1
# [13] = target: Neu5Ac(a2-3)Gal(b1-3)[Neu5Ac(a2-6)]GalNAc
# Outline: as §1
# Neu5Ac(a2-3)Gal(b1-4)Glc = target: Neu5Ac(a2-3)Gal(b1-4)Glc
# Outline: as §1
# [14] = target: Neu5Ac(a2-3)Gal(b1-4)GlcNAc
# Outline: as §1
# [15] = target: Neu5Ac(a2-3)Gal(b1-4)GlcNAc(b1-2)Man(a1-3)[GlcNAc(b1-2)Man(b1-4)GlcNAc(b1-2)Man(a1-6)]Man(b1-4)GlcNAc(b1-4)GlcNAc
# Outline: as §1
# [16] = target: Neu5Ac(a2-3)Gal(b1-4)GlcNAc(b1-2)Man(a1-3)[Neu5Ac(a2-6)Gal(b1-4)GlcNAc(b1-2)Man(a1-6)]Man(b1-4)GlcNAc(b1-4)GlcNAc
# Outline: as §1
# [17] = target: Neu5Ac(a2-3)Gal(b1-4)GlcNAc(b1-3)Gal(b1-3)GlcNAc
# Outline: as §1
# [18] = target: Neu5Ac(a2-3)Gal(b1-4)GlcNAc(b1-3)Gal(b1-4)GlcNAc
# Outline: as §1
# [19] = target: Neu5Ac(a2-3)Gal(b1-4)GlcNAc(b1-3)Gal(b1-4)GlcNAc(b1-3)Gal(b1-4)GlcNAc
# Outline: as §1
# [20] = target: Neu5Ac(a2-3)Gal(b1-4)GlcNAc(b1-3)Gal(b1-4)[Fuc(a1-3)]GlcNAc
# Outline: as §1
# [21] = target: Neu5Ac(a2-3)Gal(b1-4)GlcNAc(b1-3)GalNAc
# Outline: as §1
# [22] = target: Neu5Ac(a2-3)Gal(b1-4)GlcNAc(b1-6)[Gal(b1-3)]GalNAc
# Outline: as §1
# [23] = target: Neu5Ac(a2-3)Gal(b1-4)GlcNAc(b1-6)[Neu5Ac(a2-3)Gal(b1-3)]GalNAc
# Outline: as §1
# [24] = target: Neu5Ac(a2-3)Gal(b1-4)GlcNAc6S
# Outline: as §1
# [25] = target: Neu5Ac(a2-3)Gal(b1-4)[Fuc(a1-3)]GlcNAc
# Outline: as §1
# [26] = target: Neu5Ac(a2-3)Gal(b1-4)[Fuc(a1-3)]GlcNAc(b1-3)Gal
# Outline: as §1
# [27] = target: Neu5Ac(a2-3)Gal(b1-4)[Fuc(a1-3)]GlcNAc(b1-3)Gal(b1-4)GlcNAc
# Outline: as §1
# [28] = target: Neu5Ac(a2-3)Gal(b1-4)[Fuc(a1-3)]GlcNAc(b1-3)Gal(b1-4)[Fuc(a1-3)]GlcNAc(b1-3)Gal(b1-4)[Fuc(a1-3)]GlcNAc
# Outline: as §1
# [29] = target: Neu5Ac(a2-3)Gal(b1-4)[Fuc(a1-3)]GlcNAc(b1-6)[Gal(b1-3)]GalNAc
# Outline: as §1
# [30] = target: Neu5Ac(a2-3)Gal(b1-4)[Fuc(a1-3)]GlcNAc(b1-6)[Neu5Ac(a2-3)Gal(b1-3)]GalNAc
# Outline: as §1
# [31] = target: Neu5Ac(a2-3)Gal(b1-4)[Fuc(a1-3)]GlcNAc6S
# Outline: as §1
# [32] = target: Neu5Ac(a2-3)Gal6S(b1-4)GlcNAc
# Outline: as §1
# [33] = target: Neu5Ac(a2-3)Gal6S(b1-4)[Fuc(a1-3)]GlcNAc
# Outline: as §1
# Neu5Ac(a2-3)GalNAc = target: Neu5Ac(a2-3)GalNAc
# Outline: as §1
# [34] = target: Neu5Ac(a2-3)GalNAc(b1-4)GlcNAc
# Outline: as §1
# [35] = target: Neu5Ac(a2-3)[GalNAc(b1-4)]Gal(b1-4)Glc
# Outline: as §1
# [36] = target: Neu5Ac(a2-3)[GalNAc(b1-4)]Gal(b1-4)GlcNAc
# Outline: as §1
# [37] = target: Neu5Ac(a2-3)[Neu5Ac(a2-6)]GalNAc
# Outline: as §1
# Neu5Ac(a2-6)Gal = target: Neu5Ac(a2-6)Gal
# Outline: as §1
binder,measurement,setting,value
B1,glycan array binding signal (z-score),Man(b1-4)GlcNAc,-0.67
same,glycan array binding signal (z-score),Neu5Ac(a2-3)Gal,-0.528
same,glycan array binding signal (z-score),[1],-1.15
same,glycan array binding signal (z-score),[2],-1.66
same,glycan array binding signal (z-score),[3],0.309
same,glycan array binding signal (z-score),[4],0.12
same,glycan array binding signal (z-score),[5],-0.166
same,glycan array binding signal (z-score),[6],-0.757
same,glycan array binding signal (z-score),[7],-0.392
same,glycan array binding signal (z-score),[8],-0.421
same,glycan array binding signal (z-score),[9],-0.468
same,glycan array binding signal (z-score),[10],1.2
same,glycan array binding signal (z-score),[11],-0.602
same,glycan array binding signal (z-score),[12],-0.427
same,glycan array binding signal (z-score),[13],0.498
same,glycan array binding signal (z-score),Neu5Ac(a2-3)Gal(b1-4)Glc,0.763
same,glycan array binding signal (z-score),[14],-0.216
same,glycan array binding signal (z-score),[15],-0.248
same,glycan array binding signal (z-score),[16],-0.689
same,glycan array binding signal (z-score),[17],-0.496
same,glycan array binding signal (z-score),[18],-0.297
same,glycan array binding signal (z-score),[19],-0.31
same,glycan array binding signal (z-score),[20],-0.47
same,glycan array binding signal (z-score),[21],-1.05
same,glycan array binding signal (z-score),[22],-0.846
same,glycan array binding signal (z-score),[23],-0.224
same,glycan array binding signal (z-score),[24],2.28
same,glycan array binding signal (z-score),[25],-0.167
same,glycan array binding signal (z-score),[26],0.23
same,glycan array binding signal (z-score),[27],0.362
same,glycan array binding signal (z-score),[28],0.44
same,glycan array binding signal (z-score),[29],4
same,glycan array binding signal (z-score),[30],0.767
same,glycan array binding signal (z-score),[31],0.88
same,glycan array binding signal (z-score),[32],-0.685
same,glycan array binding signal (z-score),[33],-0.835
same,glycan array binding signal (z-score),Neu5Ac(a2-3)GalNAc,-0.156
same,glycan array binding signal (z-score),[34],-0.604
same,glycan array binding signal (z-score),[35],-1.19
same,glycan array binding signal (z-score),[36],-0.041
same,glycan array binding signal (z-score),[37],-1.38
same,glycan array binding signal (z-score),Neu5Ac(a2-6)Gal,-1.17
